Assay: general procedure: Fmoc solid-phase peptide synthesis; 2-chlorotritylchloride resin (TCP)
Conditions: for step yield: late stage modification step

Substance | step yield [%] | conjugation yield (conjugation step) [%]
Ac-Lys(OAloc)-Gly-Asp(OAll)-Glu(OAll)-Val-Asp(OAll)-PABC | 20.5 | 
Ac-Lys(OAloc)-Gly-Asp(OAll)-Glu(OAll)-Val-Asp(OAll)-PABC-DOX |  | 74
Ac-Lys(OAloc)-Gly-Asp(OAll)-Glu(OAll)-Val-Asp(OAll)-PABOH | 84 | 
